This is one part of the list. These are further read-outs of the screen, such as a control signal, another cell line or another target. No call is given for them. Compounds called inactive in the main read-out are mostly missing here. Potencies come from curve fits of mixed quality, noted in brackets.

This note sets out measurements from PubChem BioAssay AID2685 (National Center for Advancing Translational Sciences (NCATS), 2010).

The test can be described thus: qHTS Assay for Lipid Storage Modulators in Drosophila S3 Cells.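 For cell number change: cells counted by Cell Tracker Red CMTPX staining in the red channel.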 The following applies: BODIPY lipid droplet fluorescence, 18-24 h; for cell number change: measured here: cell count max response, cells fed with added oleic acid. The procedure, abridged:
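Laser-scanning cytometry quantifies lipid droplet accumulation (500–530 nm total intensity; droplet/cell object ratio) in oleic acid-fed (400 uM added) Drosophila S3 cells treated with a concentration series. 20 uM Triacsin C defined 100% inhibition.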
Background: qHTS replaces the single test concentration by a dilution series.

[1] abbreviates: measured here: lipid fluorescence (Fed channel) AC50, cells fed with added oleic acid.
The mark [2] stands for this setting: measured here: cell number channel AC50, cells fed with added oleic acid.

Take `COCCNC(=O)c1ccc(N2CCC3(CC2)OCCO3)c([N+](=O)[O-])c1`: the cell number change came to 16.1%. On to `CCOC(=O)c1nnn(-c2nonc2N)c1-c1ccc(F)cc1`, for which the cell number change amounted to 19.7%. As for `CCO[C@@H]1OC(C(=O)NCc2nc3ccccc3[nH]2)=C[C@H](c2ccccc2)[C@H]1CCCO`, the cell number change was -16.9%. Under setting [1], the AC50 (commonly the concentration at which the activity in the assay is half-maximal) is 29.1 µM [falling, single point]. Turning to `COC(=O)c1nc(N)sc1-c1ccc(Cl)c(Cl)c1`, the cell number change came to 1.46%. Further, the AC50 under setting [1] is 1.3 µM [rising, full curve].

On to `COc1cc(NC(=O)Cn2nc(Cc3cccnc3)c3ccccc3c2=O)cc(OC)c1OC`, for which the cell number change worked out at 0.264%. The AC50 under setting [1] is 0.731 µM [rising, full curve].

Consider `COc1ccccc1NC(=O)CSc1nc(N)c(-c2ccccc2)c(=O)[nH]1`, for which the cell number change was -2.35%. The AC50 under setting [1] was 3.26 µM [falling, full curve, poor fit]. Take `COc1cccc(C(=O)C(C#N)=C(SC)SC)c1`: the cell number change was -57%. For the same compound, the AC50 under setting [2] was 6.51 µM [falling, partial curve]. Further, under setting [1], the AC50 is 7.31 µM [falling, partial curve]. For the compound `O=C(N/C=C/n1cnc2cc(C(F)(F)F)ccc21)c1ccccc1`, the cell number change is -141%. Also, the AC50 under setting [2] is 25.9 µM [falling, partial curve]. Also, under setting [1], the AC50 is 20.6 µM [falling, partial curve]. For `CNc1nc(NC#N)nc(SC)n1`, the cell number change is -31.6%. Besides, the AC50 under setting [2] is 29.1 µM [falling, single point]. `O=C(N/N=C/c1ccccc1)c1cc(-c2ccc3c(c2)OCO3)n[nH]1`: the cell number change was found to be 9.84%. Take `CC(C)c1c(O)nc(SCc2ccccc2)[nH]c1=O`: the cell number change was -38.5%. For the same compound, the AC50 under setting [2] is 29.1 µM [falling, single point]. Moreover, the AC50 under setting [1] was 0.164 µM [falling, full curve]. For `COCCCNC(=O)C1CC(=O)OC1c1ccc(OC)c(OC)c1` (stereo not given), the cell number change is -0.265%. In addition, the AC50 under setting [2] was 1.3 µM [rising, single point]. Take `CCCCN(C(=O)C1CCC1)c1c(N)n(CC(C)C)c(=O)[nH]c1=O`: the cell number change was -7%. In the case of `O=c1[nH]n(-c2ccccn2)c(=O)c2ccccc12`, the cell number change is -1.28%.

Consider `O=C(O)CCC(=O)Nc1ccc(-c2nc3ccc(C(=O)c4ccccc4)cc3[nH]2)cc1`, for which the cell number change stood at 0.88%. Moreover, the AC50 under setting [1] was 0.58 µM [rising, full curve, poor fit].

In the case of `CC(=O)OCC1OC(n2ccc(=O)[nH]c2=O)C(O)C1O` (stereo not given), the cell number change is 3.03%. Under setting [1], the AC50 was 0.517 µM [falling, full curve, poor fit].

Take `O=C(O)CC(SCC(=O)Nc1ccccc1)C(=O)O` (stereo not given): the cell number change stood at 38%. As for `CC1CC(C)CN(C(=O)CCCn2c(=S)[nH]c3ccccc3c2=O)C1` (stereo not given), the cell number change was 1.81%. For `CCN(C(=O)COC(=O)CNS(=O)(=O)c1ccccc1)c1ccccc1`, the cell number change is -71.6%. For the same compound, under setting [2], the AC50 is 29.1 µM [falling, single point]. Also, the AC50 under setting [1] is 29.1 µM [falling, single point].
